This passage reports binding results from US20230048553A1 (AbbVie / Abbott, published 2023).

Amino acid sequences for entries named in this document (tags omitted). A change or cut given only in a name is not applied to a line headed by its entry. Chains listed by the source or under a name are the forms on record and can include a tag or linker.
cynomolgus CCR8 (G7NYJ2, form named): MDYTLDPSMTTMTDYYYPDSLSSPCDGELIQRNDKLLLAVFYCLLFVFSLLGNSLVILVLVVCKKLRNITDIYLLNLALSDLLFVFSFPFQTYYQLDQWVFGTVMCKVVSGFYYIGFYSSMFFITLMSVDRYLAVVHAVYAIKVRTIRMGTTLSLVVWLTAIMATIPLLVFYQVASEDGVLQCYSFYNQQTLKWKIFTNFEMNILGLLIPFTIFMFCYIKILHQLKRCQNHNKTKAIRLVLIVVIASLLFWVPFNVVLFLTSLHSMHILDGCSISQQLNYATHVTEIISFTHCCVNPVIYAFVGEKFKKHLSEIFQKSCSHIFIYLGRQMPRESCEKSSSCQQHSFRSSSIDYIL

Test [1] addresses T1, cynomolgus CCR8 (cynomolgus monkey, UniProt G7NYJ2 1-355). In words: flow cytometry, Jurkat cells overexpressing CCR8. A general note: Flow cytometry measures light scatter and fluorescence of single cells or particles in a stream.
For test [2], the target named is T1, cynomolgus CCR8. Description: flow cytometry on cyno CCR8 Jurkat cells.
Test [3] concerns the target T1, cynomolgus CCR8. In words: flow cytometry on cyCCR8 Jurkat cells. On the procedure: The candidate molecules were assessed for binding capacity using flow cytometry through known methods against overexpressed huCCR8 or cyCCR8 on the surface of Jurkat cells. The exemplary antibodies were tested for their ability to self-interact, bind to huCCR8 and cyCCR8, capacity for ADCC using the reporter bioassay, and non-specific binding to HEK293 cells. […] The AC-SINS self-interaction scores for each candidate was <1. At 100 μg/mL, non-specific binding maximums ranged from 97 to 144 GMFI. At 10 μg/mL, non-specific binding maximums ranged from 94-111 GFMI. At 1 μg/mL, non-specific binding maximums ranged from 87-102 GMFI.

These are yes or no findings as the source states them, for the method shown. Some binding calls cover weakened binding; strength is not graded here.

B1: ABBV-514 (antibody, human IgG1, kappa, V domains shown)
VH: EVQLVESGGGLVQPGGSLKLSCAASGFIFSNAVMYWVRQASGKGLEWVARIKTKFNNYATYYADAVKGRFTISRDDSKNMVYLQMNSLKTEDTAVYYCTAGDRNKPFAYWGQGTLVTVSS
VL: ETVVTQSPATLSLSPGERATLSCRASTSVITLLHWFQQKPGQAPRLLIHGASNLESRVPARFSGSGSGTDFTLTISSLEPEDFATYFCQQSWNDPYTFGQGTKLEIKR
modifications: afucosylated N-glycan at ASN-300 (EU: ASN-297)
notes: Afucosylated humanized IgG1 kappa made in cells expressing Pseudomonas RMD
As to B1, the binding entry in test [1] and in test [2] was “binds” each time.

B2: AC-277357 (fucosylated) (antibody, human IgG1, kappa, V domains shown)
VH: B1 VH
VL: B1 VL
notes: AC-264700 with LCDR1 D27→T. Human IgG1 kappa
For the molecule B2, the binding entry in test [3] is listed as “binds”.
